Record: PubChem BioAssay AID1259308 (NCATS, 2017)

Purpose: 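Knock-downs that increase output of a recombinant reporter protein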 (primary screen)
Cells: human HEK293 embryonic kidney cells stably expressing firefly luciferase (HEK-CMV-Luc2-Hygro)
Reagent: single siRNA against human genes, 0.8 pmol siRNA per well
Timing: 72 h
Measured: 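Reporter luminescence and viable-cell signal on separate replicate plates, given as percent of non-targeting control and median/MAD z-scores, plus per-cell luciferase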
Reading the numbers: total luciferase, z-score and total luciferase, % of control: higher = more reporter protein produced
Active means: 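Active when the median/MAD z-score for overall luciferase is greater than 3; a gene was taken forward for validation with new siRNAs if at least two of its three siRNAs passed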
Meaning of the calls: active = raised luciferase; inactive = no rise
This is one part, drawn at random, of about 59,000 reagents tested. About 1,510 of them (2.6%) count as active. 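Calls use total luciferase alone and ignore viability, so some active siRNAs may act by altering cell number.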 Reagents against one gene are numbered here. Further read-outs or replicates are left out here. No sequences are given here.

{"Target gene": "PRMT8", "reagent no.": 1, "total luciferase, z-score": 0.545, "total luciferase, % of control": 92.7, "activity call": "inactive"}
{"Target gene": "PRMT8", "reagent no.": 2, "total luciferase, z-score": 0.0927, "total luciferase, % of control": 83.7, "activity call": "inactive"}
{"Target gene": "PRMT8", "reagent no.": 3, "total luciferase, z-score": -0.472, "total luciferase, % of control": 72.5, "activity call": "inactive"}
{"Target gene": "MRPL53", "reagent no.": 1, "total luciferase, z-score": -1.5, "total luciferase, % of control": 52, "activity call": "inactive"}
{"Target gene": "MRPL53", "reagent no.": 2, "total luciferase, z-score": 0.177, "total luciferase, % of control": 85.4, "activity call": "inactive"}
{"Target gene": "MRPL53", "reagent no.": 3, "total luciferase, z-score": 0.48, "total luciferase, % of control": 91.4, "activity call": "inactive"}
{"Target gene": "BTBD2", "reagent no.": 1, "total luciferase, z-score": -0.855, "total luciferase, % of control": 64.9, "activity call": "inactive"}
{"Target gene": "BTBD2", "reagent no.": 2, "total luciferase, z-score": -0.264, "total luciferase, % of control": 76.6, "activity call": "inactive"}
{"Target gene": "BTBD2", "reagent no.": 3, "total luciferase, z-score": 0.0149, "total luciferase, % of control": 82.2, "activity call": "inactive"}
{"Target gene": "TLCD2", "reagent no.": 1, "total luciferase, z-score": 0.724, "total luciferase, % of control": 96.3, "activity call": "inactive"}
{"Target gene": "TLCD2", "reagent no.": 2, "total luciferase, z-score": 1.06, "total luciferase, % of control": 103, "activity call": "inactive"}
{"Target gene": "TLCD2", "reagent no.": 3, "total luciferase, z-score": 5.04, "total luciferase, % of control": 182, "activity call": "active"}
{"Target gene": "MORN5", "reagent no.": 1, "total luciferase, z-score": 0.126, "total luciferase, % of control": 84.4, "activity call": "inactive"}
{"Target gene": "MORN5", "reagent no.": 2, "total luciferase, z-score": -0.378, "total luciferase, % of control": 74.4, "activity call": "inactive"}
{"Target gene": "MORN5", "reagent no.": 3, "total luciferase, z-score": -1.54, "total luciferase, % of control": 51.2, "activity call": "inactive"}

Active calls, of those listed so far:
{"Target gene": "TLCD2", "reagent no.": 3, "total luciferase, z-score": 5.04, "total luciferase, % of control": 182, "activity call": "active"}

Next results follow:
{"Target gene": "RXFP1", "reagent no.": 1, "total luciferase, z-score": -0.165, "total luciferase, % of control": 78.6, "activity call": "inactive"}
{"Target gene": "RXFP1", "reagent no.": 2, "total luciferase, z-score": 0.756, "total luciferase, % of control": 96.9, "activity call": "inactive"}
{"Target gene": "RXFP1", "reagent no.": 3, "total luciferase, z-score": 0.24, "total luciferase, % of control": 86.7, "activity call": "inactive"}
{"Target gene": "SCUBE2", "reagent no.": 1, "total luciferase, z-score": -0.201, "total luciferase, % of control": 77.9, "activity call": "inactive"}
{"Target gene": "SCUBE2", "reagent no.": 2, "total luciferase, z-score": -1.23, "total luciferase, % of control": 57.4, "activity call": "inactive"}
{"Target gene": "SCUBE2", "reagent no.": 3, "total luciferase, z-score": 0.0848, "total luciferase, % of control": 83.6, "activity call": "inactive"}
{"Target gene": "LY75", "reagent no.": 1, "total luciferase, z-score": 0.633, "total luciferase, % of control": 94.5, "activity call": "inactive"}
{"Target gene": "LY75", "reagent no.": 2, "total luciferase, z-score": 0.104, "total luciferase, % of control": 83.9, "activity call": "inactive"}
{"Target gene": "LY75", "reagent no.": 3, "total luciferase, z-score": 0.0609, "total luciferase, % of control": 83.1, "activity call": "inactive"}
{"Target gene": "BTNL2", "reagent no.": 1, "total luciferase, z-score": -0.871, "total luciferase, % of control": 64.6, "activity call": "inactive"}
{"Target gene": "BTNL2", "reagent no.": 2, "total luciferase, z-score": -0.25, "total luciferase, % of control": 76.9, "activity call": "inactive"}
{"Target gene": "BTNL2", "reagent no.": 3, "total luciferase, z-score": -0.878, "total luciferase, % of control": 64.4, "activity call": "inactive"}
{"Target gene": "PCMTD1", "reagent no.": 1, "total luciferase, z-score": -0.564, "total luciferase, % of control": 70.7, "activity call": "inactive"}
{"Target gene": "PCMTD1", "reagent no.": 2, "total luciferase, z-score": -0.32, "total luciferase, % of control": 75.5, "activity call": "inactive"}
{"Target gene": "PCMTD1", "reagent no.": 3, "total luciferase, z-score": -1.53, "total luciferase, % of control": 51.4, "activity call": "inactive"}
{"Target gene": "RNF227", "reagent no.": 1, "total luciferase, z-score": 0.899, "total luciferase, % of control": 99.8, "activity call": "inactive"}
{"Target gene": "RNF227", "reagent no.": 2, "total luciferase, z-score": 0.667, "total luciferase, % of control": 95.2, "activity call": "inactive"}
{"Target gene": "RNF227", "reagent no.": 3, "total luciferase, z-score": -0.894, "total luciferase, % of control": 64.1, "activity call": "inactive"}
